Assay results as given in patent publication US6384030B1, “Water soluble azoles as broad-spectrum antifungals” (priority 1998, dated 2002).
Some results were stated once for a whole list of compounds, not compound by compound.

Test: Water solubility (example D1)
Assay type: physicochemical
Conditions: water buffered with 0.1 M citric acid and 0.2 M Na2HPO4 (pH =4); shaken 1 day at room temperature; UV

Compound: CC(C(C)n1ncn(-c2ccc(N3CCN(c4ccc(OCC5COC(Cn6cncn6)(c6ccc(F)cc6F)O5)cc4)CC3)cc2)c1=O)N1CCCC1CO (mixture of isomers) [Compound 9]
- solubility: more than 0.1 mg/ml

Compound: CC(C(C)n1ncn(-c2ccc(N3CCN(c4ccc(OCC5COC(Cn6cncn6)(c6ccc(F)cc6F)O5)cc4)CC3)cc2)c1=O)N1CCC(N)CC1 (mixture of isomers) [Compound 17]
- solubility: more than 0.1 mg/ml
